Assay results: PMC8437979
No constants are given. Whether binding was seen depends on the method and setting. Binding seen in cells or lysates may run through a third protein. Here binding means that the protein was enriched with, or labelled near, the bait; the list need not be complete.

Amino acid sequences for entries named in this document (tags omitted).
UniProt Q99942: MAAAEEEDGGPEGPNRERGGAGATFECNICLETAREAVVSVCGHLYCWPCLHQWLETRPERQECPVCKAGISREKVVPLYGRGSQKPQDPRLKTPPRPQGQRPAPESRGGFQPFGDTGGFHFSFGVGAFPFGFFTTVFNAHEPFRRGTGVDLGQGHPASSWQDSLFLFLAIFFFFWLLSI
UniProt Q09028: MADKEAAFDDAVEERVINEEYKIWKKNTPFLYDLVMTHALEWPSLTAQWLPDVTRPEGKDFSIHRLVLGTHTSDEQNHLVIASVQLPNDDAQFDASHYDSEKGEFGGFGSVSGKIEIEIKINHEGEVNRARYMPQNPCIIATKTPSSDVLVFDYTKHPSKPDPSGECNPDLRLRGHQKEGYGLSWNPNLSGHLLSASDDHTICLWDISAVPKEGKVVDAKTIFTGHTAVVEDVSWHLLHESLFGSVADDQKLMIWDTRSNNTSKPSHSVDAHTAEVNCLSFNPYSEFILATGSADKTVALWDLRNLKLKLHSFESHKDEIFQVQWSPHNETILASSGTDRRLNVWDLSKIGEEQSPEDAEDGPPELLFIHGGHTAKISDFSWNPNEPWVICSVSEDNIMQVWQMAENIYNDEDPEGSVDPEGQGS

B1: S100A8 (protein, UniProt P05109 1-93)
chain: MLTELEKALNSIIDVYHKYSLIKGNFHAVYRDDLKKLLETECPQYIRKKGADVWFKELDINTDGAVNFQEFLILVIKMGVAAHKKSHEESHKE

target: Doxycycline-inducible Flag-tagged RNF5 (WT) in MOLM-13 cells (UniProt Q99942); experiment: affinity purification with mass spectrometry; lysates of MOLM-13 cells expressing doxycycline-inducible Flag-tagged RNF5 versus empty vector (doxycycline 1 µg/mL 48 h; MG132 10 µM 4 h before harvest); TBS-lysis buffer; anti-Flag-M2-agarose overnight at 4 °C; elution with 3×Flag peptide; LC-MS/MS

binding, binds:
Endogenous RBBP4 (retinoblastoma binding protein 4) of MOLM-13 cells (from UniProt Q09028 1-425), VCP (from UniProt P55072 1-806), B1
